# Experimental data: the supplement of paper PMC11732987, “Enantioselective OTUD7B fragment discovery through chemoproteomics screening and high-throughput optimisation” (Communications Chemistry, 2025)
# Chains of the proteins cited; added tags and fusions are not shown. Lines headed by an entry give the natural chain unless they say otherwise; changes in a name come on top. Residues count along the entry.
# UniProt Q8WW33: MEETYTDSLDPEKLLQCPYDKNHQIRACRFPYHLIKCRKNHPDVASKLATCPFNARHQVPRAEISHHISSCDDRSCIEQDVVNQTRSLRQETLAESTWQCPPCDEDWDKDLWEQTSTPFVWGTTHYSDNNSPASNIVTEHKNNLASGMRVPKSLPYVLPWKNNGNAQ
# UniProt Q9UKN8: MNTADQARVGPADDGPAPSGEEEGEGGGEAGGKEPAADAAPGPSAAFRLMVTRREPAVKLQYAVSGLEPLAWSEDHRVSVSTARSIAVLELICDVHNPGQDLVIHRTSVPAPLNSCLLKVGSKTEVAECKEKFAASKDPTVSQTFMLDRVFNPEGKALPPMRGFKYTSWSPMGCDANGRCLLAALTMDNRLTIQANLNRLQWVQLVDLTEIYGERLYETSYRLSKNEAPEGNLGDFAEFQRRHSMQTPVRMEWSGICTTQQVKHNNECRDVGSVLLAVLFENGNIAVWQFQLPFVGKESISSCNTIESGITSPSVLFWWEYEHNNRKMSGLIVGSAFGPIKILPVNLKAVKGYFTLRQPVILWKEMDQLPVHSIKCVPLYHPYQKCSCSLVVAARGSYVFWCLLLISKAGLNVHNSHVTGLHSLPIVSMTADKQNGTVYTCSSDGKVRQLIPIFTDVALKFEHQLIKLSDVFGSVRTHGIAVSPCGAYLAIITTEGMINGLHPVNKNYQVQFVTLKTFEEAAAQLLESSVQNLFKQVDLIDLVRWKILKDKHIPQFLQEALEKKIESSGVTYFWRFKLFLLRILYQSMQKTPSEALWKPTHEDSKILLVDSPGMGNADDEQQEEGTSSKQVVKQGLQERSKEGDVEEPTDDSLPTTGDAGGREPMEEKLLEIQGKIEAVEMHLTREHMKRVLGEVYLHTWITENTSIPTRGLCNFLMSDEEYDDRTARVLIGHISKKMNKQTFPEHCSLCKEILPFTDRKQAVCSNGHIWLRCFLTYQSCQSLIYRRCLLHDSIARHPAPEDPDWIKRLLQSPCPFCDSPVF
# UniProt P51610: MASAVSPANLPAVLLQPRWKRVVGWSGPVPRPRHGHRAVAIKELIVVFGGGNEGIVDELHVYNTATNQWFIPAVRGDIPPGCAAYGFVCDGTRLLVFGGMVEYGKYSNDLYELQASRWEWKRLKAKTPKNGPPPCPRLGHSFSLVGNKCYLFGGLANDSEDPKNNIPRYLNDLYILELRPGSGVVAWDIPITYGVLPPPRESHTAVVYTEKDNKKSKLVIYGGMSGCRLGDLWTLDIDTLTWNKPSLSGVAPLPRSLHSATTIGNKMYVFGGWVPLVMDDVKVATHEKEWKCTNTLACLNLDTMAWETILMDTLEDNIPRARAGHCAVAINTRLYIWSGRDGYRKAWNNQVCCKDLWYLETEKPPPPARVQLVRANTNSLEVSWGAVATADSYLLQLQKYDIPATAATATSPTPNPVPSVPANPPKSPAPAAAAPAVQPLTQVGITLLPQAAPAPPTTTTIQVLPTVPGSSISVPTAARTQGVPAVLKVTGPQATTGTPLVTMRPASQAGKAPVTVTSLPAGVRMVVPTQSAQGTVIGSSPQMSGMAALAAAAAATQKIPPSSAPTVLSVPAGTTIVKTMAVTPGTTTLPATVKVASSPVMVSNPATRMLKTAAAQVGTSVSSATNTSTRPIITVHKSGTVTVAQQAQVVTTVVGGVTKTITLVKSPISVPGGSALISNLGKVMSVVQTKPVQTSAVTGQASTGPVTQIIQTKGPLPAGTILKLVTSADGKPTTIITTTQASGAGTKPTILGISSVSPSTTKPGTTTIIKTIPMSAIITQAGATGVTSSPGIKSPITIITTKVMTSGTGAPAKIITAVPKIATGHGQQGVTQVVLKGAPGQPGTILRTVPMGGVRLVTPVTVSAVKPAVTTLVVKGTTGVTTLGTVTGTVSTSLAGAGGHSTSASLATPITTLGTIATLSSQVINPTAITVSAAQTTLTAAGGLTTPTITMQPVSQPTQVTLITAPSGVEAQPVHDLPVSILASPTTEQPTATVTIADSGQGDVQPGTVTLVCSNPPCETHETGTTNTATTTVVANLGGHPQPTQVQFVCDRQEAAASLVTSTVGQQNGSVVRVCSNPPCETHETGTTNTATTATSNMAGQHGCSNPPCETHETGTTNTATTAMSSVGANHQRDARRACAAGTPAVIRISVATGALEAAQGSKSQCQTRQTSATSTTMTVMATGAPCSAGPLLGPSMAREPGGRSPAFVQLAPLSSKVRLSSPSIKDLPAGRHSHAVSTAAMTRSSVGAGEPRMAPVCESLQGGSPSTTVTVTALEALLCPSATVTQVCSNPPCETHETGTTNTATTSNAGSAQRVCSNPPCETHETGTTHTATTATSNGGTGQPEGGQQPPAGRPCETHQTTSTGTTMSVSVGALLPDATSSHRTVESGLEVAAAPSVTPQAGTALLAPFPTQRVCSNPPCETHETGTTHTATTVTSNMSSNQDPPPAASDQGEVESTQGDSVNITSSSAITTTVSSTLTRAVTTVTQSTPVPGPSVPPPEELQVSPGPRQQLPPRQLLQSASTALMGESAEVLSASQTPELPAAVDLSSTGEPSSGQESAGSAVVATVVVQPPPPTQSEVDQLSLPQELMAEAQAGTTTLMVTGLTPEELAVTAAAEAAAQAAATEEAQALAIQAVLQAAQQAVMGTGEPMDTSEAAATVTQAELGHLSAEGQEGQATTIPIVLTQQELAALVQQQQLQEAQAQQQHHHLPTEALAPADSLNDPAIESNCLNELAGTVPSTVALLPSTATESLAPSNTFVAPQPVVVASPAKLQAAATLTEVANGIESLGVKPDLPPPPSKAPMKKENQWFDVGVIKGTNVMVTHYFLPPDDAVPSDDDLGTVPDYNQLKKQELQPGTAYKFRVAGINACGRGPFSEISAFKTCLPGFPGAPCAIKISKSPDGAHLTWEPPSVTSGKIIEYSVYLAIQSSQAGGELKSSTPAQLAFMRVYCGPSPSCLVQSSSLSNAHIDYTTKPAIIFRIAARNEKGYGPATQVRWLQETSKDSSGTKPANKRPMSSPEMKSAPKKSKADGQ
# UniProt Q9UII4: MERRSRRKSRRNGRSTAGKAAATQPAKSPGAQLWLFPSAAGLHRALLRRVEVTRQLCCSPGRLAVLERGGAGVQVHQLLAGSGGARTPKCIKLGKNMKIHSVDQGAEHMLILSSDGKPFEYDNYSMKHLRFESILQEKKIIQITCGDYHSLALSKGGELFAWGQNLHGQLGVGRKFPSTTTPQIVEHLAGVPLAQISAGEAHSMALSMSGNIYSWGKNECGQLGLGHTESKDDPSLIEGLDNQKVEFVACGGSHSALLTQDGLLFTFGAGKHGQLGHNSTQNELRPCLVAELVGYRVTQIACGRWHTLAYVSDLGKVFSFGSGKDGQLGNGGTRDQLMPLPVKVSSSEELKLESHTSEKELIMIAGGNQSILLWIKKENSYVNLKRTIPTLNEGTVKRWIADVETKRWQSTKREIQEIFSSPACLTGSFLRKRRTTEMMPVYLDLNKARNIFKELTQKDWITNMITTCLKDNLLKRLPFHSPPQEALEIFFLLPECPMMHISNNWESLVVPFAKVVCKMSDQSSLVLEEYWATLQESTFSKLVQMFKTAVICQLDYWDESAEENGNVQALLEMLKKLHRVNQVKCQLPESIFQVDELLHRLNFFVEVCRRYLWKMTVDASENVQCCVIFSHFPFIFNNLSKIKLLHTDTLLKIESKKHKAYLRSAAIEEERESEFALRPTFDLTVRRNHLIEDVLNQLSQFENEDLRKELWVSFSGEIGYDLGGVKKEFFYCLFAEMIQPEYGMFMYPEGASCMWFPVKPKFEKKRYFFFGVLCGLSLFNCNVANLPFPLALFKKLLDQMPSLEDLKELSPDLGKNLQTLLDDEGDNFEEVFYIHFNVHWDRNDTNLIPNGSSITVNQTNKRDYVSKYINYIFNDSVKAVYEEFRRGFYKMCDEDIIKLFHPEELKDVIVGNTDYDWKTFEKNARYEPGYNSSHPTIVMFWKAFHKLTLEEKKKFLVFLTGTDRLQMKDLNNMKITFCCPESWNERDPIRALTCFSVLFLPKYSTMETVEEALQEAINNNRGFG
# UniProt Q7Z4H3, 141-163: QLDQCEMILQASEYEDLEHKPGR
# UniProt Q12789: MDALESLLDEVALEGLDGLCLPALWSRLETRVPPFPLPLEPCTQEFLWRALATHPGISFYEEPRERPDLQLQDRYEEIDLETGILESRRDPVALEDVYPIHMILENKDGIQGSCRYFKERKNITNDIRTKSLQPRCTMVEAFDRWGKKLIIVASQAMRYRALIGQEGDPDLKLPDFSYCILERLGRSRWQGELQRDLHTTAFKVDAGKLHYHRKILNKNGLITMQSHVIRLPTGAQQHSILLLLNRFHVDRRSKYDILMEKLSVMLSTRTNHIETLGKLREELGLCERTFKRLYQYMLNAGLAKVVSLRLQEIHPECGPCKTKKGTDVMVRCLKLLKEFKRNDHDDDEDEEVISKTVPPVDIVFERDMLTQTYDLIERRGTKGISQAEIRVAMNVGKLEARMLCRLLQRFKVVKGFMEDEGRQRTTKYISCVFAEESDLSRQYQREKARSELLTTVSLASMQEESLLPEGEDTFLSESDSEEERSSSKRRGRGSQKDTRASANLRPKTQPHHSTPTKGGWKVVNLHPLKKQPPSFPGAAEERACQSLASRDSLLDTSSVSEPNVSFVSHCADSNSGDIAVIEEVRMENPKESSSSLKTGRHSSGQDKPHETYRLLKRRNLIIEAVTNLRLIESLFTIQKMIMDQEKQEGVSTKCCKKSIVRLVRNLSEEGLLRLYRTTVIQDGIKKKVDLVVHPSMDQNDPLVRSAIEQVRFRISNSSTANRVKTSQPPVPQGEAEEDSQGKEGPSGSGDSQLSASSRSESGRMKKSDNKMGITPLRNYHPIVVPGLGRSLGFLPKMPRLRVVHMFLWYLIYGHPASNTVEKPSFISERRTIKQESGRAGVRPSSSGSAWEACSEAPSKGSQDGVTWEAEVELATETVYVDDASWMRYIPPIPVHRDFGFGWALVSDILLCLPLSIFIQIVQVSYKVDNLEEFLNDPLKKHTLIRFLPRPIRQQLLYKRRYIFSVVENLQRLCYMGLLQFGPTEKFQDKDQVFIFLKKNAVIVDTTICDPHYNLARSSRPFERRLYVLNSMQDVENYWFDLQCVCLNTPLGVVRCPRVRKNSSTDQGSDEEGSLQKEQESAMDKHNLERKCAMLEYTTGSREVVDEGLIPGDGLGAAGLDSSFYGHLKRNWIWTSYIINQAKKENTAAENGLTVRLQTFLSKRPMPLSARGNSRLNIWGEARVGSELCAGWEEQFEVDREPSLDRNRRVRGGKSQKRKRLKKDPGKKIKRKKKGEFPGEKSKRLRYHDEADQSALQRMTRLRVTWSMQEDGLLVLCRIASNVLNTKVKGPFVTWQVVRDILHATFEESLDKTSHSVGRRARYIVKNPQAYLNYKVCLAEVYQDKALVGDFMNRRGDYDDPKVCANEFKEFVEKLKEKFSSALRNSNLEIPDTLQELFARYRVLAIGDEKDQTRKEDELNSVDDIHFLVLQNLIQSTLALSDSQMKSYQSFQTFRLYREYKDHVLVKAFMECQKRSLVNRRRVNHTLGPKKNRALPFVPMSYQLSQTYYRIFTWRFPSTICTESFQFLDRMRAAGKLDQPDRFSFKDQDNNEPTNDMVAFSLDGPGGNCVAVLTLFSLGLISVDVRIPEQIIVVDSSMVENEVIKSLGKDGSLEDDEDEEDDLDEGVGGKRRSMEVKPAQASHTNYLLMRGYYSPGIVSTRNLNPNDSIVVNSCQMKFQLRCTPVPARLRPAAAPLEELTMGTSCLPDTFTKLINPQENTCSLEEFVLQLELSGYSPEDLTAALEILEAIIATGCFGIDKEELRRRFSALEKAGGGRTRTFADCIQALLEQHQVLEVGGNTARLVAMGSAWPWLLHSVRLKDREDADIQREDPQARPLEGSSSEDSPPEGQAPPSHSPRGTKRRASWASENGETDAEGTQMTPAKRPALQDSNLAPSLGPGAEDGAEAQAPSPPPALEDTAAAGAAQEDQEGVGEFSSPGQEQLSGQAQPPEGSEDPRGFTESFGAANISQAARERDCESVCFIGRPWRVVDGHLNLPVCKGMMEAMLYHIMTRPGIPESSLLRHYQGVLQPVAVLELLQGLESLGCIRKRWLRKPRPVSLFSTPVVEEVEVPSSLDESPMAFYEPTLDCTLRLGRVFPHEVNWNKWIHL
# UniProt Q9ULT8, 1382-1403: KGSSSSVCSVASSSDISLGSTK
# UniProt Q86VS8, 429-464: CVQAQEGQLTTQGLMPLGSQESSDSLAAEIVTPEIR
# UniProt P51858, 106-126: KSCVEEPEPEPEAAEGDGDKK
# UniProt Q6PII5: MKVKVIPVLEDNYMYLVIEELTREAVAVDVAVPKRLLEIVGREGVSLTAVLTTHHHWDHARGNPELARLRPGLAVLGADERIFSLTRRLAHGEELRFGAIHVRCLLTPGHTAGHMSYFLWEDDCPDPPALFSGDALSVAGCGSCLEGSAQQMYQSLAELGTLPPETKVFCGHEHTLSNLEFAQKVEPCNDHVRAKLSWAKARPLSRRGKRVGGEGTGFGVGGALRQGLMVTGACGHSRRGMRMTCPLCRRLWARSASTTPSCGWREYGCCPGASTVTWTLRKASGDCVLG
# UniProt Q9BXW7, 100-124: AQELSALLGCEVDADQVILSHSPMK
# Some of the results follow. The data scatter; read single values as rough.
# Key:
# [1] = compound: ClCC(=O)N[C@@H]1CCCc2ccccc12; assay: log2 mean competition ratio of IA-DTB cysteine labelling (DMSO/compound) (log2 ratio); higher = stronger cysteine engagement by compound; conditions: treatment time: 4 h, cell line lysate: HEK293T
# Experimental: (§1)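 IA-DTB competitive cysteine chemoproteomics in HEK293T RIPA lysate. Lysates were treated with compound 29 or 30 at 50 or 200 µM for 4 h, then IA-DTB (500 µM, 1 h), trypsin-digested, NeutrAvidin-enriched and analysed by diaPASEF. Competition ratio = intensity DMSO / intensity compound (n=4 treated, n=64 DMSO); binding: mean log2 CR ≥ 1 and p ≤ 0.05 plus QC filters. Target is the cysteine site.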
# [2] = compound: ClCC(=O)N[C@H]1CCCc2ccccc12; assay: as above; conditions: treatment time: 4 h, cell line lysate: HEK293T
# Experimental: as §1
Target,log2 mean competition ratio ([1]; 50 µM),log2 mean competition ratio ([1]; 200 µM),log2 mean competition ratio ([2]; 50 µM),log2 mean competition ratio ([2]; 200 µM)
GTSF1 C51 (UniProt Q8WW33),-0.129,-0.45,0.163,-0.123
GTF3C5 C432 (UniProt Q9Y5Q8),-0.0388,0.116,-0.112,0.329
HK2 C886 (UniProt P52789),-0.0165,0.0498,0.107,0.109
HK1 C834 (UniProt P19367),0.0429,0.0358,-0.13,-0.192
GSTM3 C119 (UniProt P21266),0.0298,-0.133,-0.0953,-0.0984
HMGCL C141 (UniProt P35914),-0.077,-0.347,-0.0631,-0.249
HELLS C836 (UniProt Q9NRZ9),0.147,-0.332,0.398,0.17
HMOX2 C282 (UniProt P30519),0.541,1.67,0.861,1.74
HECTD3 C112 (UniProt Q5T447),0.0778,0.229,-0.474,0.0447
HK2 C628 (UniProt P52789),-0.219,0.00802,-0.42,0.0724
HAUS6 C208 (UniProt Q7Z4H7),-0.16,-0.0313,-0.228,0.0376
HELZ C80 (UniProt P42694),-0.0055,-0.362,-0.166,0.134
HDLBP C104,0.357,-0.0177,-0.0668,0.0184
HOXB6 C123,0.122,0.0857,-0.0268,0.0177
HMGXB3 C434 (UniProt Q12766),-0.0767,-0.0156,-0.223,0.0811
HNRNPH1 C122 (UniProt P31943),-0.291,-0.948,0.182,-0.722
HIP1R C105 (UniProt O75146),0.132,0.145,0.144,0.0559
GXYLT1 C123 (UniProt Q4G148),0.415,0.367,0.201,0.24
HOOK1 C432 (UniProt Q9UJC3),0.369,-0.297,0.0202,-0.126
HEATR5A C1421 (UniProt Q86XA9),0.269,0.181,0.245,0.216
HABP4 C236 (UniProt Q5JVS0),-0.124,-0.0817,-0.0783,0.0135
HDDC3 C133 (UniProt Q8N4P3),-0.0353,-0.148,-0.33,-0.167
GTF3C4 C129 (UniProt Q9UKN8),-0.129,0.0797,-0.0167,0.186
HELB C379 (UniProt Q8NG08),0.202,0.308,-0.0754,-0.243

Target,log2 mean competition ratio ([1]; 50 µM),log2 mean competition ratio ([1]; 200 µM),log2 mean competition ratio ([2]; 50 µM),log2 mean competition ratio ([2]; 200 µM)
HOXC6 C87,0.00327,0.251,0.143,0.375
HNRNPA1 C175,-0.143,-0.0224,-0.134,-0.167
HJURP C663 (UniProt Q8NCD3),-0.194,0.376,-0.36,0.0198
HCFC1 C227 (UniProt P51610),0.298,0.209,0.511,0.166
GTF3C4 C788 (UniProt Q9UKN8),0.561,0.293,0.0513,0.115
HGH1 C51 (UniProt Q9BTY7),0.128,0.131,0.252,0.0913
HMGCR C600 (UniProt P04035),0.0641,0.224,0.0197,0.257
HLTF C360 (UniProt Q14527),0.14,0.0447,0.0104,0.0632
HASPIN C300 (UniProt Q8TF76),-0.105,0.118,-0.289,0.214
HMGCR C561 (UniProt P04035),0.101,-0.206,0.119,-0.0153
GTPBP4 C174 (UniProt Q9BZE4),0.398,0.146,0.0378,0.263
HNRNPUL2 C602 (UniProt Q1KMD3),-0.0665,-0.103,0.604,-0.246
HERC5 C585 (UniProt Q9UII4),-0.188,0.417,-0.22,0.241
HNRNPLL C474 (UniProt Q8WVV9),0.0474,-0.0635,-0.664,-0.354
HCCS C66 (UniProt P53701),0.232,0.0935,0.363,0.48
GUF1 C492 (UniProt Q8N442),0.442,0.259,0.187,0.308
HASPIN C762 (UniProt Q8TF76),-0.217,0.0962,0.0108,0.0154
HDDC2 C145 (UniProt Q7Z4H3),-0.0321,0.162,0.273,0.0701
HK1 C628 (UniProt P19367),0.4,0.399,-0.277,0.218
HEATR5B C870 (UniProt Q9P2D3),0.201,0.898,0.134,0.42
HAUS7 C8 (UniProt Q99871),0.2,-0.0176,-0.207,0.304
GTF3C4 C257 (UniProt Q9UKN8),0.116,-0.0528,0.143,-0.0395
HLCS C289 (UniProt P50747),0.262,-0.0244,0.648,-0.103
GTF3C1 C1471 (UniProt Q12789),-0.0927,-0.0821,0.303,-0.00426

Target,log2 mean competition ratio ([1]; 50 µM),log2 mean competition ratio ([1]; 200 µM),log2 mean competition ratio ([2]; 50 µM),log2 mean competition ratio ([2]; 200 µM)
HEATR1 C1143 (UniProt Q9H583),0.582,-0.0706,0.328,-0.262
HDGFL2 C631 (UniProt Q7Z4V5),0.367,0.0297,0.107,-0.0058
HEATR5A C623 (UniProt Q86XA9),-0.135,0.00554,-0.0731,-0.142
GTSE1 C478 (UniProt Q9NYZ3),0.33,0.0484,0.556,0.00787
HECTD1 C1389 (UniProt Q9ULT8),0.0993,-0.312,0.336,-0.101
HCFC1 C1139 (UniProt P51610),0.0279,0.255,-0.171,0.357
HOOK3 C429 (UniProt Q86VS8),0.0676,-0.486,0.407,-0.434
HNRNPUL2 C538 (UniProt Q1KMD3),0.0306,0.189,0.315,0.205
HECTD3 C530 (UniProt Q5T447),-0.0795,0.082,-0.334,-0.534
GTF3C1 C1999 (UniProt Q12789),0.357,0.63,0.116,0.506
HAUS2 C200 (UniProt Q9NVX0),-0.15,-0.214,-0.0642,-0.272
HDGF C108 (UniProt P51858),-0.0348,-0.179,-0.0787,-0.123
HNRNPH1 C22 (UniProt P31943),0.145,-0.187,0.354,-0.136
HEATR5B C1693 (UniProt Q9P2D3),0.144,-0.216,0.249,-0.19
HAGHL C188 (UniProt Q6PII5),0.152,-0.32,0.129,-0.0286
HERC2 C4517 (UniProt O95714),0.247,0.0425,-0.0408,-0.106
HDAC4 C194 (UniProt P56524),0.0568,-0.14,0.152,0.42
GTF3C1 C431 (UniProt Q12789),0.405,0.341,0.489,0.362
GTF2F2 C116 (UniProt P13984),0.277,0.196,-0.0293,0.0312
GTF3C1 C1363 (UniProt Q12789),-0.00838,-0.209,0.567,-0.0217
HNRNPM C114,0.175,-0.138,0.414,0.0633
HELLS C346 (UniProt Q9NRZ9),0.334,0.145,0.421,-0.19
HMGXB4 C418 (UniProt Q9UGU5),0.569,0.184,0.443,0.0982
HECTD1 C1995 (UniProt Q9ULT8),0.145,0.219,-0.308,0.13

Target,log2 mean competition ratio ([1]; 50 µM),log2 mean competition ratio ([1]; 200 µM),log2 mean competition ratio ([2]; 50 µM),log2 mean competition ratio ([2]; 200 µM)
GTF2H1 C246 (UniProt P32780),-0.186,-0.0739,0.326,0.174
GTPBP6 C99 (UniProt O43824),0.0443,0.00376,-0.0138,0.0281
HEXB C309 (UniProt P07686),0.468,-0.0998,0.265,-0.136
GTF3C1 C286 (UniProt Q12789),-0.0386,0.341,-0.0505,0.177
GTF2E1 C42 (UniProt P29083),0.156,-0.0491,-0.0873,0.187
HNRNPDL C177 (UniProt O14979),-0.154,-0.0552,-0.478,-0.0695
HDGF C12 (UniProt P51858),0.685,0.0617,0.529,0.12
HEATR3 C464 (UniProt Q7Z4Q2),-0.0623,0.141,0.0448,0.125
HMGCS1 C12 (UniProt Q01581),0.579,0.21,0.0607,-0.0577
HNRNPC C46 (UniProt P07910),0.376,-0.562,0.25,-0.561
HECTD4 C1406,0.00303,-0.00854,0.234,-0.021
HECTD4 C1636,-0.0451,0.133,0.0723,0.232
GTF3C1 C1673 (UniProt Q12789),0.33,-0.0123,0.866,0.174
HDHD5 C109 (UniProt Q9BXW7),-0.0167,-0.258,-0.127,-0.398
HOXB6 C137,0.45,0.129,0.326,-0.136
HCFC1 C1872 (UniProt P51610),0.311,0.128,0.603,0.231
HK2 C368 (UniProt P52789),-0.207,0.158,-0.627,0.0546
HMMR C242 (UniProt O75330),-0.241,0.0136,-0.501,-0.246
HERC5 C220 (UniProt Q9UII4),-0.193,-0.0629,-0.335,-0.218
GTF3C1 C1336 (UniProt Q12789),0.227,0.287,-0.0761,0.0279
GTPBP8 C114 (UniProt Q8N3Z3),-0.338,0.0329,-0.649,0.0461
HOXA13 C194,-0.0743,-0.238,-0.107,-0.301
HERC2 C1037 (UniProt O95714),0.304,0.363,-0.125,0.197
HIRA C1007 (UniProt P54198),0.166,-0.111,-0.381,-0.159

# 25 successive records out of the list so far, for reference:
Target,log2 mean competition ratio ([1]; 50 µM),log2 mean competition ratio ([1]; 200 µM),log2 mean competition ratio ([2]; 50 µM),log2 mean competition ratio ([2]; 200 µM)
HECTD1 C1995 (UniProt Q9ULT8),0.145,0.219,-0.308,0.13
GTF2H1 C246 (UniProt P32780),-0.186,-0.0739,0.326,0.174
GTPBP6 C99 (UniProt O43824),0.0443,0.00376,-0.0138,0.0281
HEXB C309 (UniProt P07686),0.468,-0.0998,0.265,-0.136
GTF3C1 C286 (UniProt Q12789),-0.0386,0.341,-0.0505,0.177
GTF2E1 C42 (UniProt P29083),0.156,-0.0491,-0.0873,0.187
HNRNPDL C177 (UniProt O14979),-0.154,-0.0552,-0.478,-0.0695
HDGF C12 (UniProt P51858),0.685,0.0617,0.529,0.12
HEATR3 C464 (UniProt Q7Z4Q2),-0.0623,0.141,0.0448,0.125
HMGCS1 C12 (UniProt Q01581),0.579,0.21,0.0607,-0.0577
HNRNPC C46 (UniProt P07910),0.376,-0.562,0.25,-0.561
HECTD4 C1406,0.00303,-0.00854,0.234,-0.021
HECTD4 C1636,-0.0451,0.133,0.0723,0.232
GTF3C1 C1673 (UniProt Q12789),0.33,-0.0123,0.866,0.174
HDHD5 C109 (UniProt Q9BXW7),-0.0167,-0.258,-0.127,-0.398
HOXB6 C137,0.45,0.129,0.326,-0.136
HCFC1 C1872 (UniProt P51610),0.311,0.128,0.603,0.231
HK2 C368 (UniProt P52789),-0.207,0.158,-0.627,0.0546
HMMR C242 (UniProt O75330),-0.241,0.0136,-0.501,-0.246
HERC5 C220 (UniProt Q9UII4),-0.193,-0.0629,-0.335,-0.218
GTF3C1 C1336 (UniProt Q12789),0.227,0.287,-0.0761,0.0279
GTPBP8 C114 (UniProt Q8N3Z3),-0.338,0.0329,-0.649,0.0461
HOXA13 C194,-0.0743,-0.238,-0.107,-0.301
HERC2 C1037 (UniProt O95714),0.304,0.363,-0.125,0.197
HIRA C1007 (UniProt P54198),0.166,-0.111,-0.381,-0.159
